Results are given in words; binding and its absence hold for the method and conditions named. Some entries that bind do so weakly or less than the wild type.
Biological target: follistatin-288 (UniProt P19883)
Experiment: co-IP; anti-FST-288 antibody on Protein G magnetic beads captures FST-288; 200 nM pro-activin A complex with 600 nM FST-288; washed with PBS with additional 400 mM NaCl; SDS-PAGE; both purified

The chains behind the UniProt entries cited, without tags or fusion partners. Residues count along the entry.
UniProt P19883, residues 30-317: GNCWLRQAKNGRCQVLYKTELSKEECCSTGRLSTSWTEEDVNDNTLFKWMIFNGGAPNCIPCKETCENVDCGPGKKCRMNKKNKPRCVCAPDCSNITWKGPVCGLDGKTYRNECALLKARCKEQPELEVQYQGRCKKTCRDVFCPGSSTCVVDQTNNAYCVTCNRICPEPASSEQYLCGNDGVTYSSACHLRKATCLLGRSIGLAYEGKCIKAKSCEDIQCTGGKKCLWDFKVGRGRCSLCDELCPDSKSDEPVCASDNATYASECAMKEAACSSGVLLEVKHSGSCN
UniProt P08476, residues 311-426: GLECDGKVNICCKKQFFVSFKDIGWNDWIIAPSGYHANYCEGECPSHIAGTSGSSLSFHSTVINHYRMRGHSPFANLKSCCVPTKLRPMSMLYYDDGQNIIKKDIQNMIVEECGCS

## mature activin A (disulfide-linked dimer of the mature domain of inhibin βA) (from UniProt P08476 311-426) (ligand)
  binding: binds

Reference: PMC4932183
